Measurements reported in article PMC11850942.
Like-named read-outs stand apart in the source and are kept apart here. Results are given in words; binding and its absence hold for the method and conditions named. In cells and extracts the contact can be indirect. A yes stands for co-enrichment or nearness to the bait. Other partners may have been found. Blank lines part the entries; values can stand above or below the molecule they belong to.

Sequences of proteins named here, by UniProt entry; tags and fusion partners are left off.
UniProt Q04206: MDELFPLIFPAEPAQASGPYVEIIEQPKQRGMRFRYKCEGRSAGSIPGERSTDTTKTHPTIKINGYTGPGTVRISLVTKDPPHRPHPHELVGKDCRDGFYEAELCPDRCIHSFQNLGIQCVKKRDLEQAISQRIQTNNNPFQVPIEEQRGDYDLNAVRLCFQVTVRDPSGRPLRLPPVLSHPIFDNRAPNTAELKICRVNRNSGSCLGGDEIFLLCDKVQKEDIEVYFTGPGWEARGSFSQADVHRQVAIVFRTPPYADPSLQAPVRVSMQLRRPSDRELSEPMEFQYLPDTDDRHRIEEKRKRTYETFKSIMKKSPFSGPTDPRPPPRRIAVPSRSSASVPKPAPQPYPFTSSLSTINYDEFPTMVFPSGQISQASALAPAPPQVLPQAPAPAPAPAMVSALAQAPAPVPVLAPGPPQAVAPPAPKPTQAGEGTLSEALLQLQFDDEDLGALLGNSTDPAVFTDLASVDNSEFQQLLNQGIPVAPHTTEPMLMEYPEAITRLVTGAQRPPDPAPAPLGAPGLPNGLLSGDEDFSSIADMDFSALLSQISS
UniProt O15156: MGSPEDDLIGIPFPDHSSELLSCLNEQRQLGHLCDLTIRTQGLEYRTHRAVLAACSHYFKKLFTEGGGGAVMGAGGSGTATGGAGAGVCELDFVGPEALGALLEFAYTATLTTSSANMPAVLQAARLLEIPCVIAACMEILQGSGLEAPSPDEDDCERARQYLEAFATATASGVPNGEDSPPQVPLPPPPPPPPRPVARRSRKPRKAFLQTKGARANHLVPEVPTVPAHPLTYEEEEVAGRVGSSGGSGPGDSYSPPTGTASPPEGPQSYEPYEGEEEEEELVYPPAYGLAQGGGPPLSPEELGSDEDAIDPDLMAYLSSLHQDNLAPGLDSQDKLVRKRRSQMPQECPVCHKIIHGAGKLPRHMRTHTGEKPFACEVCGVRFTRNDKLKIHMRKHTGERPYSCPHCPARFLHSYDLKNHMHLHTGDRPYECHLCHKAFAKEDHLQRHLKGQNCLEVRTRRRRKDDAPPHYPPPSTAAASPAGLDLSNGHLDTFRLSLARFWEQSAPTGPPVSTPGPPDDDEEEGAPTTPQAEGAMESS
UniProt Q14686: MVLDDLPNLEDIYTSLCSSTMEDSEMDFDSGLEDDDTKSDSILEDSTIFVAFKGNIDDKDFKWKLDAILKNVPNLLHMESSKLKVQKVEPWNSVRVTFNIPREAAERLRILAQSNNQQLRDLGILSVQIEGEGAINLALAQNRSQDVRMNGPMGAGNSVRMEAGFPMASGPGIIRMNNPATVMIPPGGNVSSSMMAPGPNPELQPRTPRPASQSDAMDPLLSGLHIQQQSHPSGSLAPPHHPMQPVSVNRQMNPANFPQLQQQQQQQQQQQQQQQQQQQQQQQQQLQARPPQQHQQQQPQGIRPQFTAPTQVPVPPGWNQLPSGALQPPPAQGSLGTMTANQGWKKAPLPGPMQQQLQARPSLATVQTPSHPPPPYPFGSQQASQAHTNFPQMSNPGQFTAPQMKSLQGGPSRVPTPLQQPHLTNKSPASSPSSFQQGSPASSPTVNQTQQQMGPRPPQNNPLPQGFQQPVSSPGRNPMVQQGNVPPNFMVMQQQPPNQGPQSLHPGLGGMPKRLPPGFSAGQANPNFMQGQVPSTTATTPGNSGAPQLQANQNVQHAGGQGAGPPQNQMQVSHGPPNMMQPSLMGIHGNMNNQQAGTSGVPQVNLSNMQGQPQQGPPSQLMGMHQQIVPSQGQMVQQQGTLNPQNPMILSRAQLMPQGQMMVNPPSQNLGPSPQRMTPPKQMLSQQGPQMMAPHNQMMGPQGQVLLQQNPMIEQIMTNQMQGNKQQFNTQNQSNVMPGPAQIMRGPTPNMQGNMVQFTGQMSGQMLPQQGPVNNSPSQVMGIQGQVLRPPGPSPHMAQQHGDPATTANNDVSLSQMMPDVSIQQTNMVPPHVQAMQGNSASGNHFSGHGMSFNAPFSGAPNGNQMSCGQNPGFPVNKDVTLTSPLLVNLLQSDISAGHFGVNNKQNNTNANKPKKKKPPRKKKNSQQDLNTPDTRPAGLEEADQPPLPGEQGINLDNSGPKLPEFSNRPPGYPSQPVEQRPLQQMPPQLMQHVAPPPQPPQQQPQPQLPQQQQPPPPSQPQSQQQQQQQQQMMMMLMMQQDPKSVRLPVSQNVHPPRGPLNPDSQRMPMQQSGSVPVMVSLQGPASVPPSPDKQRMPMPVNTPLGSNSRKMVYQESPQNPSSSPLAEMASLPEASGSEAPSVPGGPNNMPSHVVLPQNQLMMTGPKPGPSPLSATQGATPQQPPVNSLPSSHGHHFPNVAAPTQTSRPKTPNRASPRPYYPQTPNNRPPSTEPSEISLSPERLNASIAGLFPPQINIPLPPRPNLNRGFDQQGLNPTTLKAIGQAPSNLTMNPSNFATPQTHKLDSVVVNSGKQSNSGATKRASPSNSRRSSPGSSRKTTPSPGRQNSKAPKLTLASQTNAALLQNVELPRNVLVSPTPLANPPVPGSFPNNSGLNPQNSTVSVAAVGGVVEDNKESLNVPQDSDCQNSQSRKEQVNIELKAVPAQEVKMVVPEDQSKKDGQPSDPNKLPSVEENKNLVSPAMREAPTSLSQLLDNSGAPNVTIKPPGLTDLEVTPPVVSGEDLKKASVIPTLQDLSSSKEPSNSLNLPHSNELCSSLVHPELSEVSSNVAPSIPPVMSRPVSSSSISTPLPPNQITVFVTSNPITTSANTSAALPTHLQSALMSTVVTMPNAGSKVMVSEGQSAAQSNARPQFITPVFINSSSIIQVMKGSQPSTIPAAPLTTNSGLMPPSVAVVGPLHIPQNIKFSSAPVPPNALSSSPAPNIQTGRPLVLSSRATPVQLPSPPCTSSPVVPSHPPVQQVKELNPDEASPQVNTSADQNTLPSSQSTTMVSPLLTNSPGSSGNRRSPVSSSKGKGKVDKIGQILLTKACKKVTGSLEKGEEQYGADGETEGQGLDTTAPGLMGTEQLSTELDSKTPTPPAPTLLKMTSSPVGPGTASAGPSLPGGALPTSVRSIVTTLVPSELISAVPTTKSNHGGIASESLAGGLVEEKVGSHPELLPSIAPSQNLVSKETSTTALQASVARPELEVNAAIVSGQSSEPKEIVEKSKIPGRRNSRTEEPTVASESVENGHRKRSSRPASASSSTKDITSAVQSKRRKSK
UniProt Q92993: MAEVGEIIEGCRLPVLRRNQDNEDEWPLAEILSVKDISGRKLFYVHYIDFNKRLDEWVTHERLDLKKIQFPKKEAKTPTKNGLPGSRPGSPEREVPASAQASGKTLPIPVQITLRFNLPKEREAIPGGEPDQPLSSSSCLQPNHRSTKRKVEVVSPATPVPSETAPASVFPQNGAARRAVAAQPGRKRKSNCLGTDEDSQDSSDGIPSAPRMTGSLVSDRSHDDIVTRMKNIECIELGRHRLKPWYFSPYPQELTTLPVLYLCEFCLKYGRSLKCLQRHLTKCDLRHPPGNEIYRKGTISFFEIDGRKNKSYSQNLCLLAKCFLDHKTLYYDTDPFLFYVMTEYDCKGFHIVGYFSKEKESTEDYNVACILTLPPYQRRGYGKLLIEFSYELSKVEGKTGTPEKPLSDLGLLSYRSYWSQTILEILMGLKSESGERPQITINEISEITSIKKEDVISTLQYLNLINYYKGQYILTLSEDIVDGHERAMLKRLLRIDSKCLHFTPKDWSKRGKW
UniProt Q92769: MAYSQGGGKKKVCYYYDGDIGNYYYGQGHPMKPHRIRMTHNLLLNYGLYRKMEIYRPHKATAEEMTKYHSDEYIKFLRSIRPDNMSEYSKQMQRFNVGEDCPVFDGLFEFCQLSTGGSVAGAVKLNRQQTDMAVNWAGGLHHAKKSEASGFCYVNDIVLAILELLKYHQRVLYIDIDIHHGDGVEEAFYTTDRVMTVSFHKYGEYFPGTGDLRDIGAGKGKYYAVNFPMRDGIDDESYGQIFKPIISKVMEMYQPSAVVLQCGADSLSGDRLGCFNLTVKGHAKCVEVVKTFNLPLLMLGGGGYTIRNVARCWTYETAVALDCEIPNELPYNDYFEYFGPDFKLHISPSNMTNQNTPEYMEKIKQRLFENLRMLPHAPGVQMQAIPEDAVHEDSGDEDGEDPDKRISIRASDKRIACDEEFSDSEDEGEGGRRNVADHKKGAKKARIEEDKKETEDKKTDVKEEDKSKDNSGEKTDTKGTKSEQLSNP
UniProt Q9BTK6: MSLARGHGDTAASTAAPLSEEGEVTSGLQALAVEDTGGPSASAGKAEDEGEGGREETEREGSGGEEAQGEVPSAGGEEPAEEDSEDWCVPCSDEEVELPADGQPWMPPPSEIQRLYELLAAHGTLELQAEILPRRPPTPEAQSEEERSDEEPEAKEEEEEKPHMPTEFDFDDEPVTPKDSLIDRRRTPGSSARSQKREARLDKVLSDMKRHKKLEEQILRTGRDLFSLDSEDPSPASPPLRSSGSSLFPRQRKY
UniProt O75030: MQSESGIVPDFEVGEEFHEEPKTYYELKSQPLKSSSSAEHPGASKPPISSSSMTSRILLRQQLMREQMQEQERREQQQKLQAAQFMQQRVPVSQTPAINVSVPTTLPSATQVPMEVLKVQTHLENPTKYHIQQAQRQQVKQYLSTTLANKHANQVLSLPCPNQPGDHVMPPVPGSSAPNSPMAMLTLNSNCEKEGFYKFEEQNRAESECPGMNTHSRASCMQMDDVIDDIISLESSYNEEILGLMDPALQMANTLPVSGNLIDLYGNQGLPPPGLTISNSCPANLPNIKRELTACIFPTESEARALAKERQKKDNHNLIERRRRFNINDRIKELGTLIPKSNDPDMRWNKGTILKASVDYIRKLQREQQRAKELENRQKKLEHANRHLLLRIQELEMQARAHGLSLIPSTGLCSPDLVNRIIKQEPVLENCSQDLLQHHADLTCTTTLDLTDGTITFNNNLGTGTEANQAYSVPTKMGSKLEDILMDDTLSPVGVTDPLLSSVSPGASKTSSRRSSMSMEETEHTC
UniProt O95365: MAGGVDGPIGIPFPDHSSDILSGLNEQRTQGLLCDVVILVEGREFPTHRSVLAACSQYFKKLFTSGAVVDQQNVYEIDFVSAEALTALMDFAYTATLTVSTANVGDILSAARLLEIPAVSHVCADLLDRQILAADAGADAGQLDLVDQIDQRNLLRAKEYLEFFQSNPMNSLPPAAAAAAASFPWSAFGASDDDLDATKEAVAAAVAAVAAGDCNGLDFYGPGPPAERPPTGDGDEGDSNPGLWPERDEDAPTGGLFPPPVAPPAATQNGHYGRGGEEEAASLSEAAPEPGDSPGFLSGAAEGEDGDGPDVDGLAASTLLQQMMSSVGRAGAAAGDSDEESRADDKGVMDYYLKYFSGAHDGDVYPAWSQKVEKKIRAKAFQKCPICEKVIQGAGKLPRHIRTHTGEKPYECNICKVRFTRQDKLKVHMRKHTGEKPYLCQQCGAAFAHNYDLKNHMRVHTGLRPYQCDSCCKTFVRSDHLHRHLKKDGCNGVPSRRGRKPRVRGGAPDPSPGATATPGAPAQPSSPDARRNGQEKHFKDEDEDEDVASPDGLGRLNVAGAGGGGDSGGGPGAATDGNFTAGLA
UniProt Q6ZW49: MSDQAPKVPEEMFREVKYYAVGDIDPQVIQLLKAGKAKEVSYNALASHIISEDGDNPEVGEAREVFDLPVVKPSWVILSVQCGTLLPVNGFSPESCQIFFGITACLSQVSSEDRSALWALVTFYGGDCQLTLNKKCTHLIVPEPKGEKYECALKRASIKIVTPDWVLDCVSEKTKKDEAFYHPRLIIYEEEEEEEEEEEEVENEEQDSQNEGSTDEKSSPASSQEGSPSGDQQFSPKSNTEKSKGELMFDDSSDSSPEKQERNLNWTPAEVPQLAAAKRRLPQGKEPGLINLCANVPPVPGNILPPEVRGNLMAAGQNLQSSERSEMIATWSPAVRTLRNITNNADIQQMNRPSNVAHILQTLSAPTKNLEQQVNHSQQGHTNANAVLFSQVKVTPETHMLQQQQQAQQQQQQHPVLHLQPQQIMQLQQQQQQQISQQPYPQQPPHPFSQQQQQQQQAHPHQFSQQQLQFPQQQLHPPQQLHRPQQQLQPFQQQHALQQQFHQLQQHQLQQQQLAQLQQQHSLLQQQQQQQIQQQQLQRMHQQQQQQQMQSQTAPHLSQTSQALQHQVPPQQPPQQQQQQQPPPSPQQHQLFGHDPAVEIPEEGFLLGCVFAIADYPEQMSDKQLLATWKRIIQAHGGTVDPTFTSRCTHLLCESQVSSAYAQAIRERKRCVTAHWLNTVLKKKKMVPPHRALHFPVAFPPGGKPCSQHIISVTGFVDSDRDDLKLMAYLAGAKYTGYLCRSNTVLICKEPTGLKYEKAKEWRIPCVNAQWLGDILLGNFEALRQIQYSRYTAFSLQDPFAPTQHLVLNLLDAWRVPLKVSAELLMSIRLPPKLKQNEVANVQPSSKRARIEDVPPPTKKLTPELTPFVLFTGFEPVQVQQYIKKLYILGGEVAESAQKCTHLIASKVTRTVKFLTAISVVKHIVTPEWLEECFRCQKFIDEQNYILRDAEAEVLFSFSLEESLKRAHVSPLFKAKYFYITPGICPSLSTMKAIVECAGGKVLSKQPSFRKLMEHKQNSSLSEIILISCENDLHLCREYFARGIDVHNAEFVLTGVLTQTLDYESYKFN

How the values were obtained:
[1] = molecular target: p65(wt)-HA-miniTurbo (human) (UniProt Q04206)
[2] = molecular target: p65(wt)-HA-miniTurbo (human) (UniProt Q04206); remark: listed apart in the source
[3] = molecular target: p65(wt)-HA-miniTurbo (human) (UniProt Q04206); remark: listed apart in the source
[4] = molecular target: p65(wt)-HA-miniTurbo (human) (UniProt Q04206); remark: listed apart in the source
[5] = molecular target: p65(wt)-HA-miniTurbo (human) (UniProt Q04206); remark: listed apart in the source
[6] = molecular target: p65(wt)-HA-miniTurbo (human) (UniProt Q04206); remark: listed apart in the source
[7] = molecular target: p65(wt)-HA-miniTurbo (human) (UniProt Q04206); remark: listed apart in the source

binding [1]: binds
Molecule: ZBTB7B (from UniProt O15156 1-539)

binding [2]: binds
Molecule: NCOA6 (from UniProt Q14686 1-2063)

binding [3]: binds
Molecule: TIP60 (KAT5) (from UniProt Q92993 1-513)

binding [3]: binds
Molecule: HDAC2 (from UniProt Q92769 1-488)

binding [3]: binds
Molecule: HDAC1 (from UniProt Q13547 1-482)

binding [2]: binds
Molecule: PAGR1 (from UniProt Q9BTK6 1-254)

binding [4]: binds
Molecule: microphthalmia-associated transcription factor (MITF) (from UniProt O75030 1-526)

binding [1]: binds
Molecule: ZBTB7A (from UniProt O95365 1-584)

binding [2]: binds
Molecule: PAXIP1 (from UniProt Q6ZW49 1-1069)

binding [5]: binds
B1: ATF2 (protein, UniProt P15336 1-505)
chain: MKFKLHVNSARQYKDLWNMSDDKPFLCTAPGCGQRFTNEDHLAVHKHKHEMTLKFGPARNDSVIVADQTPTPTRFLKNCEEVGLFNELASPFENEFKKASEDDIKKMPLDLSPLATPIIRSKIEEPSVVETTHQDSPLPHPESTTSDEKEVPLAQTAQPTSAIVRPASLQVPNVLLTSSDSSVIIQQAVPSPTSSTVITQAPSSNRPIVPVPGPFPLLLHLPNGQTMPVAIPASITSSNVHVPAAVPLVRPVTMVPSVPGIPGPSSPQPVQSEAKMRLKAALTQQHPPVTNGDTVKGHGSGLVRTQSEESRPQSLQQPATSTTETPASPAHTTPQTQSTSGRRRRAANEDPDEKRRKFLERNRAAASRCRQKRKVWVQSLEKKAEDLSSLNGQLQSEVTLLRNEVAQLKQLLLAHKDCPVTAMQKKSGYHTADKDDSSEDISVPSSPHTEAIQHSSVSTSNGVSSTSKAEAVATSVLTQMADQSTEPALSQIVMAPSSQSQPSGS

binding [6]: binds
B2: ATF3 (protein, UniProt P18847 1-181)
chain: MMLQHPGQVSASEVSASAIVPCLSPPGSLVFEDFANLTPFVKEELRFAIQNKHLCHRMSSALESVTVSDRPLGVSITKAEVAPEEDERKKRRRERNKIAAAKCRNKKKEKTECLQKESEKLESVNAELKAQIEELKNEKQHLIYMLNLHRPTCIVRAQNGRTPEDERNLFIQQIKEGTLQS

binding [4]: binds
B3: GLIS3 (protein, UniProt Q8NEA6 1-775)
chain: MMVQRLGLISPPASQVSTACNQISPSLQRAMNAANLNIPPSDTRSLISRESLASTTLSLTESQSASSMKQEWSQGYRALPSLSNHGSQNGLDLGDLLSLPPGTSMSSNSVSNSLPSYLFGTESSHSPYPSPRHSSTRSHSARSKKRALSLSPLSDGIGIDFNTIIRTSPTSLVAYINGSRASPANLSPQPEVYGHFLGVRGSCIPQPRPVPGSQKGVLVAPGGLALPAYGEDGALEHERMQQLEHGGLQPGLVNHMVVQHGLPGPDSQSAGLFKTERLEEFPGSTVDLPPAPPLPPLPPPPGPPPPYHAHAHLHHPELGPHAQQLALPQATLDDDGEMDGIGGKHCCRWIDCSALYDQQEELVRHIEKVHIDQRKGEDFTCFWAGCPRRYKPFNARYKLLIHMRVHSGEKPNKCTFEGCEKAFSRLENLKIHLRSHTGEKPYLCQHPGCQKAFSNSSDRAKHQRTHLDTKPYACQIPGCTKRYTDPSSLRKHVKAHSSKEQQARKKLRSSTELHPDLLTDCLTVQSLQPATSPRDAAAEGTVGRSPGPGPDLYSAPIFSSNYSSRSGTAAGAVPPPHPVSHPSPGHNVQGSPHNPSSQLPPLTAVDAGAERFAPSAPSPHHISPRRVPAPSSILQRTQPPYTQQPSGSHLKSYQPETNSSFQPNGIHVHGFYGQLQKFCPPHYPDSQRIVPPVSSCSVVPSFEDCLVPTSMGQASFDVFHRAFSTHSGITVYDLPSSSSSLFGESLRSGAEDATFLQISTVDRCPSQLSSVYTEG

binding [6]: binds
B4: ATF7 (protein, UniProt P17544 1-483)
chain: MGDDRPFVCNAPGCGQRFTNEDHLAVHKHKHEMTLKFGPARTDSVIIADQTPTPTRFLKNCEEVGLFNELASSFEHEFKKAADEDEKKAAAGPLDMSLPSTPDIKIKEEEPVEVDSSPPDSPASSPCSPPLKEKEVTPKPVLISTPTPTIVRPGSLPLHLGYDPLHPTLPSPTSVITQAPPSNRQMGSPTGSLPLVMHLANGQTMPVLPGPPVQMPSVISLARPVSMVPNIPGIPGPPVNSSGSISPSGHPIPSEAKMRLKATLTHQVSSINGGCGMVVGTASTMVTARPEQSQILIQHPDAPSPAQPQVSPAQPTPSTGGRRRRTVDEDPDERRQRFLERNRAAASRCRQKRKLWVSSLEKKAEELTSQNIQLSNEVTLLRNEVAQLKQLLLAHKDCPVTALQKKTQGYLESPKESSEPTGSPAPVIQHSSATAPSNGLSVRSAAEAVATSVLTQMASQRTELSMPIQSHVIMTPQSQSAGR

binding [4]: binds
B5: GLIS1 (protein, UniProt Q8NBF1 1-620)
chain: MAEARTSLSAHCRGPLATGLHPDLDLPGRSLATPAPSCYLLGSEPSSGLGLQPETHLPEGSLKRCCVLGLPPTSPASSSPCASSDVTSIIRSSQTSLVTCVNGLRSPPLTGDLGGPSKRARPGPASTDSHEGSLQLEACRKASFLKQEPADEFSELFGPHQQGLPPPYPLSQLPPGPSLGGLGLGLAGRVVAGRQACRWVDCCAAYEQQEELVRHIEKSHIDQRKGEDFTCFWAGCVRRYKPFNARYKLLIHMRVHSGEKPNKCMFEGCSKAFSRLENLKIHLRSHTGEKPYLCQHPGCQKAFSNSSDRAKHQRTHLDTKPYACQIPGCSKRYTDPSSLRKHVKAHSAKEQQVRKKLHAGPDTEADVLTECLVLQQLHTSTQLAASDGKGGCGLGQELLPGVYPGSITPHNGLASGLLPPAHDVPSRHHPLDATTSSHHHLSPLPMAESTRDGLGPGLLSPIVSPLKGLGPPPLPPSSQSHSPGGQPFPTLPSKPSYPPFQSPPPPPLPSPQGYQGSFHSIQSCFPYGDCYRMAEPAAGGDGLVGETHGFNPLRPNGYHSLSTPLPATGYEALAEASCPTALPQQPSEDVVSSGPEDCGFFPNGAFDHCLGHIPSIYTDT

binding [6]: binds
B6: ATF1 (protein, UniProt P18846 1-271)
chain: MEDSHKSTTSETAPQPGSAVQGAHISHIAQQVSSLSESEESQDSSDSIGSSQKAHGILARRPSYRKILKDLSSEDTRGRKGDGENSGVSAAVTSMSVPTPIYQTSSGQYIAIAPNGALQLASPGTDGVQGLQTLTMTNSGSTQQGTTILQYAQTSDGQQILVPSNQVVVQTASGDMQTYQIRTTPSATSLPQTVVMTSPVTLTSQTTKTDDPQLKREIRLMKNREAARECRRKKKEYVKCLENRVAVLENQNKTLIEELKTLKDLYSNKSV

binding [7]: binds
B7: p52 (NFKB2) (protein, UniProt Q00653 1-454)
chain: MESCYNPGLDGIIEYDDFKLNSSIVEPKEPAPETADGPYLVIVEQPKQRGFRFRYGCEGPSHGGLPGASSEKGRKTYPTVKICNYEGPAKIEVDLVTHSDPPRAHAHSLVGKQCSELGICAVSVGPKDMTAQFNNLGVLHVTKKNMMGTMIQKLQRQRLRSRPQGLTEAEQRELEQEAKELKKVMDLSIVRLRFSAFLRASDGSFSLPLKPVISQPIHDSKSPGASNLKISRMDKTAGSVRGGDEVYLLCDKVQKDDIEVRFYEDDENGWQAFGDFSPTDVHKQYAIVFRTPPYHKMKIERPVTVFLQLKRKRGGDVSDSKQFTYYPLVEDKEEVQRKRRKALPTFSQPFGGGSHMGGGSGGAAGGYGGAGGGGSLGFFPSSLAYSPYQSGAGPMGCYPGGGGGAQMAATVPSRDSGEEAAEPSAPSRTPQCEPQAPEMLQRAREYNARLFGLA
